Reference: US20030170653A1, “Biological method for the production of tuliposide A and its intermediates” (priority 2001, published 2003)

B1: GHBD2: γ-hydroxybutyrate dehydrogenase homolog from Arabidopsis (SEQ ID NO: 16), expressed from pTrcAds (protein)
chain: MEVGFLGLGIMGKAMSMNLLKNGFKVTVWNRTLSKCDELVEHGASVCESPAEVIKKCKYTIAMLSDPCAALSVVFDKGGVLEQICEGKGYIDMSTVDAETSLKINEAITGKGGRFVEGPVSGSKKPAEDGQLIILAAGDKALFEESIPAFDVLGKRSFYLGQVGNGAKMKLIVNMIMGSMMNAFSEGLVLADKSGLSSDTLLDILDLGAMTNPMFKGKGPSMNKSSYPPAFPLKHQQKDMRLALALGDENAVSMPVAAAANEAFKKARSLGLGDLDFSAVIEAVKFSRE
modifications: Arabidopsis
B2: GHBD1: γ-hydroxybutyrate dehydrogenase homolog from tulip pistil (SEQ ID NO: 14), expressed from pTrcEtp (protein)
chain: MEVGFLGLGIMGKAMAVNLLRSGFRVTVWNRTLSKCNELLEQGASVGETPAAVIKKCKYTIAMLSDPSAALSVVFDKDGVLEHMSSGKGYIDMSTVDAVTSSKISEAITQKGGHFLEAPVSGSKKPAEDGQLVILAAGEKALYEEIIPAFEVLGKKSFFLGQVGNGANMKLIVNMIMGSMMNALSEGLSLAGKSGLEQKTLLDVLDLGAIANPMFKLKGPAMIQNNHPPAFPLKHQQKDMRLALALGDENAVSMPVAAAANEAFKKARSLGLGDLDFSAVYEVLKYGDAS
modifications: tulip pistil

Assay: Kinetic analysis of purified dehydrogenases with succinatesemialdehyde and NADPH
Type: biochemical
Conditions: purified proteins
Protocol: Cultures were grown at 37° C. for 5 h and then were transferred to 100 mL of LB liquid media containing ampicillin (100 μg/mL). These were grown overnight at room temperature. The next morning, 50 mL of each culture was transferred to 1 L of LB and grown at room temperature until the OD600 nm reached 0.8. IPTG was added to the cultures to a concentration of 0.4 mM and cultures were grown for an additional 4 h at room temperature. The cultures were then centrifuged at 10,000× g for 15 min, the supernatant was decanted and the resulting pellet was resuspended in 10 mL of breakage buffer (100 mM HEPES, pH 7.2; 10 % glycerol; 1 mM AEBSF; 1 μg/mL leupeptin; and 1 μg/mL pepstatin). Cells were broken by passage two times through a french press and the resulting extract was centrifuged at 16,000× g for 15 min at 4° C. […] All fractions were analyzed by SDS-PAGE.
All proteins eluted at around 120 mM immidazole. […] Under these conditions, the kinetic parameters for the Arabidopsis dehydrogenase (kcat=1290 min-1, KM=4 mM) and the Tulip dehydrogenase (kcat=1200 min^−1, KM=3 mM) were determined. The ablility of each enzyme to reduce to α-methylenesuccinatesemialdehyde to α-methylene-γ-hydroxybutyrate was assessed in a coupled assay. […] Compounds were detected with a Waters 9600 PDA detector. […]

Row | Molecule | pH optimum
1 | B1 | ~7.0
2 | B2 | ~7.0
